According to article PMC7156754:
These are yes or no findings as the source states them, for the method shown. In cells and extracts the contact can be indirect. Some entries that bind do so weakly or less than the wild type.

Chains of the proteins cited; added tags and fusions are not shown.
UniProt P46937: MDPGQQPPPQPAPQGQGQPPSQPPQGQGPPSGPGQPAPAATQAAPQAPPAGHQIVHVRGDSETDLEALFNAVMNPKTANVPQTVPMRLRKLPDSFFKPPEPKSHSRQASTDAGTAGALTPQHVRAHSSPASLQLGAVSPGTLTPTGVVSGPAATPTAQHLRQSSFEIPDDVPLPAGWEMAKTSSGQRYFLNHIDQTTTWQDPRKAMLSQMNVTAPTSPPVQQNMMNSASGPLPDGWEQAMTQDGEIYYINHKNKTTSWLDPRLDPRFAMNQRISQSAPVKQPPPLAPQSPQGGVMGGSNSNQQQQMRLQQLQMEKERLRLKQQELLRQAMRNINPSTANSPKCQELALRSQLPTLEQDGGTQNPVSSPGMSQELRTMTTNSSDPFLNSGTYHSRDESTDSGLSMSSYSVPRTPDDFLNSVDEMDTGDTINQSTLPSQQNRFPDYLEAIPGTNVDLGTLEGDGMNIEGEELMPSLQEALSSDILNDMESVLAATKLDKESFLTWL

Target: Yes-associated protein 1 (YAP1) (human (endogenous in HL-7702)) (UniProt P46937)
Assay: co-IP; 50-75 ug of protein lysate incubated with anti-YAP1 (ab52771) overnight at 4 °C, protein G Plus-Sepharose at 25 °C for 2-4 h, blot with anti-P73; HL-7702 cells treated with D-GalN/LPS and with oe-NC, sh-NC, oe-NEAT1, sh-NEAT1, oe-LATS2 or sh-LATS2 lentivirus

binding: binds
B1: P73 (protein, UniProt O15350 1-636)
chain: MAQSTATSPDGGTTFEHLWSSLEPDSTYFDLPQSSRGNNEVVGGTDSSMDVFHLEGMTTSVMAQFNLLSSTMDQMSSRAASASPYTPEHAASVPTHSPYAQPSSTFDTMSPAPVIPSNTDYPGPHHFEVTFQQSSTAKSATWTYSPLLKKLYCQIAKTCPIQIKVSTPPPPGTAIRAMPVYKKAEHVTDVVKRCPNHELGRDFNEGQSAPASHLIRVEGNNLSQYVDDPVTGRQSVVVPYEPPQVGTEFTTILYNFMCNSSCVGGMNRRPILIIITLEMRDGQVLGRRSFEGRICACPGRDRKADEDHYREQQALNESSAKNGAASKRAFKQSPPAVPALGAGVKKRRHGDEDTYYLQVRGRENFEILMKLKESLELMELVPQPLVDSYRQQQQLLQRPSHLQPPSYGPVLSPMNKVHGGMNKLPSVNQLVGQPPPHSSAATPNLGPVGPGMLNNHGHAVPANGEMSSSHSAQSMVSGSHCTPPPPYHADPSLVSFLTGLGCPNCIEYFTSQGLQSIYHLQNLTIEDLGALKIPEQYRMTIWRGLQDLKQGHDYSTAQQLLRSSNAATISIGGSGELQRQRVMEAVHFRVRHTITIPNRGGPGGGPDEWADFGFDLPDCKARKQPIKEEFTEAEIH
